Residue numbers refer to the chain shown, from its start. Names and notes keep the numbering of the source. Results are given in words; binding and its absence hold for the method and conditions named. Binding seen in cells or lysates may run through a third protein. Some results given as binding are weak or reduced against the parent protein; the word gives no strength. Values belong to the binder of their own block, whether it stands above or below them.
Target: vimentin (mouse lens) (mouse (endogenous in lens)) (UniProt P20152)
Experiment: co-IP; lens extracts of 12-week-old mice (50 mM Tris-HCl pH 7.4, 150 mM NaCl, 1 mM EDTA, 0.1% SDS); polyclonal anti-vimentin coupled to amino-link plus resin; precipitates blotted for αB-crystallin; control rabbit serum on resin

By UniProt entry, the sequences of proteins in these tests, tags left out.
UniProt P20152: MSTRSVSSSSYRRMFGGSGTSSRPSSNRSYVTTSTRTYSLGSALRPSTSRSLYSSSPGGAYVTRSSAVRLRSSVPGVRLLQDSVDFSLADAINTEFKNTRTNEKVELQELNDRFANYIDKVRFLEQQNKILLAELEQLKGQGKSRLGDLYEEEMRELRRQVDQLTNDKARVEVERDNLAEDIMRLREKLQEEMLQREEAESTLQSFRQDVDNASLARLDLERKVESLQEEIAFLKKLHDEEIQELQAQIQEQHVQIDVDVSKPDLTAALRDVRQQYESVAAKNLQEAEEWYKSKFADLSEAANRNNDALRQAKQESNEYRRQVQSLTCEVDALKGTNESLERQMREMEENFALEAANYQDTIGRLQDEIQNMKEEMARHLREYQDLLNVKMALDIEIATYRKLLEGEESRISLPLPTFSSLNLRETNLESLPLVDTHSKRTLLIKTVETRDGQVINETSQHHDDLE

binding: binds
B1: αB-crystallin (wild type, mouse lens) (protein, UniProt P23927 1-175)
chain: MDIAIHHPWIRRPFFPFHSPSRLFDQFFGEHLLESDLFSTATSLSPFYLRPPSFLRAPSWIDTGLSEMRLEKDRFSVNLDVKHFSPEELKVKVLGDVIEVHGKHEERQDEHGFISREFHRKYRIPADVDPLTITSSLSSDGVLTVNGPRKQVSGPERTIPITREEKPAVAAAPKK

binding: binds
B2: αB-crystallin R120G (knock-in mouse lens) (protein, UniProt P23927 1-175)
chain: B1 chain with R120G

Reference: article PMC3060869
